Reference: patent US20040106555

How the values were obtained:
Experiment in all cases: EMSA
[1] = system: E47/neurogenin3 heterodimer; details: weakest of four; protein translated in vitro; protein details: TNT reticulocyte lysate; label: 32P
E47/NeuroD1 heterodimer = details: weakest of four; protein translated in vitro; protein details: TNT reticulocyte lysate; label: 32P
HES1 = molecular target: T1, HES1 (UniProt Q04666); details: binds with lower affinity than ngn3 sites; purified recombinant protein; protein details: GST fusion (pGEX2T, E. coli BL21); label: 32P
T1 sequence (looked up, limits assumed): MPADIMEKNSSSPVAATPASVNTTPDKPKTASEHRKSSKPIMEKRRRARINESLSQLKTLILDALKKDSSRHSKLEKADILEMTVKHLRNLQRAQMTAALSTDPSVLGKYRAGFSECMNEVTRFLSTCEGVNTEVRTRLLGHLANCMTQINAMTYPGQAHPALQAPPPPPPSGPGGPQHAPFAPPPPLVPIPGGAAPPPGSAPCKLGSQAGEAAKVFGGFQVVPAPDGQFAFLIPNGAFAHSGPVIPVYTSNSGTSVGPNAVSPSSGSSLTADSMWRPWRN

HNF3beta (endogenous) = molecular target: T2, HNF3beta (endogenous) (UniProt P35583); details: single major complex recognized by HNF3beta antiserum; protein in an extract; protein details: betaTC3 and alphaTC1.6 nuclear extract; label: 32P
T2 sequence (looked up, limits assumed): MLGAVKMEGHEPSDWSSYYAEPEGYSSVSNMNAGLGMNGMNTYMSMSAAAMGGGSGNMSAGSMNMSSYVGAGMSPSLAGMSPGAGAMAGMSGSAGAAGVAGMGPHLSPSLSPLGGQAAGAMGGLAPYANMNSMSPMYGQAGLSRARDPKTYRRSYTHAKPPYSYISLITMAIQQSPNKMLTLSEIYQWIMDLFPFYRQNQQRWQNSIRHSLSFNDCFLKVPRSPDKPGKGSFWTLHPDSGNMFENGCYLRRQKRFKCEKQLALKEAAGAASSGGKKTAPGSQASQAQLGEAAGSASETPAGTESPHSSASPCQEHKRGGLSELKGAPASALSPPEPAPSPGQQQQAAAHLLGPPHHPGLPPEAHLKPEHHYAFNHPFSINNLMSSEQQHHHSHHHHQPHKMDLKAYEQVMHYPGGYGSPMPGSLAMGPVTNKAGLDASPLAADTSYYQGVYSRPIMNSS

“CTTTGTCCGGAATCCAGCTGTGCCCTGCGGGGGAG (double strand) [NEUROG3 E box]”: binds more weakly [1]; binds more weakly (E47/NeuroD1 heterodimer).

“GATCTCGCCACGAGCCACAAGGATTG (double strand) [H1P]”: binds more weakly (HES1).

“GATCTCTCGAGAGAGCAAACAGCGCGGCGG (double strand) [H3-1 (ngn3 promoter proximal)]”: binds (HNF3beta (endogenous)).

“TTATTATTATTTTAGCAAACACTGGAGACAG (double strand) [H3-2 (ngn3 promoter distal)]”: binds (HNF3beta (endogenous)).

For some assays here: The comparison behind a weaker result is the experiment's own reference, which may not be listed here. For some assays here: Tags and fusion partners may be left off the protein sequences shown. For some assays here: Where cells or extracts were used, other partners may take part.
